Values from PubChem BioAssay AID743454 (Peter MacCallum Cancer Centre, 2014).
Assay: 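Knock-downs lowering viability or raising caspase 3/7 activity in vorinostat-treated resistant cells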 (primary screen). Cell system: human HCT116-VR colon cancer cells, selected for vorinostat resistance. Reagent: siRNA pool against human genes, 40 nM siRNA pool. Timing: vorinostat for 24 h, read-out about 72 h after transfection. Treatment: vorinostat at 2.5 µM final. Measurement: 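Two measures, CellTiter-Fluor viability and luminescent caspase 3/7 activity, each as fold change against same-plate mock wells, mean of duplicates, then screen-wide robust z-score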. Scale: viability robust z-score: higher = more viable cells than screen typical; caspase robust z-score: higher = more caspase 3/7 activity than screen typical. Call rule: 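Hits are knock-downs in viability class RV1/RV2 or caspase class CA1/CA2, excluding ones that killed cells in the no-drug cell-count arm; hits then retested with single siRNAs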.
In all, the deposit lists about 18,000 reagents; this is a part drawn at random. Over the whole deposit, 450 (2.5%) got an active call. 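Single biological run; no consistent viability z cut-off exists, so the class columns, not z-scores, define the calls.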 Entries without a mark were called inactive.

gene	viability hit class	caspase hit class	viability robust z-score	caspase robust z-score
ANKRD16 (ankyrin repeat domain 16)	no change	no change	1.38	2.04
DYRK4 (dual specificity tyrosine phosphorylation regulated kinase 4)	no change	no change	1.7	2.92
KRTAP9-2 (keratin associated protein 9-2)	no change	no change	1.39	-0.21
CES4A (carboxylesterase 4A)	no change	no change	0.22	-0.09
PPP1R14B (protein phosphatase 1 regulatory inhibitor subunit 14B)	no change	no change	0.84	-0.14
CHRNA1 (cholinergic receptor nicotinic alpha 1 subunit)	no change	no change	-0.74	4.04
OR8K1 (olfactory receptor family 8 subfamily K member 1)	no change	no change	0.2	4.87
BCL2L11 (BCL2 like 11)	no change	no change	0.23	-0.99
TEX11 (testis expressed 11)	no change	no change	-0.5	-0.62
BRIP1 (BRCA1 interacting DNA helicase 1)	no change	no change	0.18	-0.73
KPNA2 (karyopherin subunit alpha 2)	no change	no change	-0.34	1.09
FHIP1B (FHF complex subunit HOOK interacting protein 1B)	no change	no change	-1.27	0.22
CYTH4 (cytohesin 4)	no change	no change	0.86	-0.4
GKN2 (gastrokine 2)	no change	no change	0.62	0.16
SLC35C1	no change	no change	-0.34	0.71
MIIP (migration and invasion inhibitory protein)	no change (active)	CA1 (caspase activation)	-1.7	6.62
SPATA19 (spermatogenesis associated 19)	no change	no change	0.55	-0.09
OR2T33 (olfactory receptor family 2 subfamily T member 33)	no change	no change	-0.52	-0.96
MMP25 (matrix metallopeptidase 25)	no change	no change	-0.63	0.16
CFL1 (cofilin 1)	no change	no change	-1.92	2.33
CRISP3 (cysteine rich secretory protein 3)	no change	no change	-0.42	0.16
TCOF1 (treacle ribosome biogenesis factor 1)	no change	no change	1.08	2.52
SF3B6 (splicing factor 3b subunit 6)	no change	no change	-4.82	0.32
SYT11 (synaptotagmin 11)	no change	no change	-1.62	0.82
TPSD1 (tryptase delta 1)	no change	no change	1.09	-0.56
NTN1 (netrin 1)	RV2 (reduced viability) (active)	no change	-4.04	0.95
RRH (retinal pigment epithelium-derived rhodopsin homolog)	no change	no change	0.24	-0.03
OCIAD2 (OCIA domain containing 2)	no change	no change	0.14	-0.84
PMM2 (phosphomannomutase 2)	no change	no change	-1.53	0.52
AMBN (ameloblastin)	no change	no change	1.51	-0.8
PGCKA1 (PDCD10 and GCKIII kinases associated 1)	no change	no change	0.75	-1.13
TMEM25 (transmembrane protein 25)	no change	no change	0.53	0.76
OXGR1 (oxoglutarate receptor 1)	no change	no change	-1.91	1.69
CEP41 (centrosomal protein 41)	no change	no change	0.02	-0.02
EPHX4 (epoxide hydrolase 4)	no change	no change	-0.04	-0.3
MYH7B (myosin heavy chain 7B)	no change	no change	0.32	0.79
CSNK1E (casein kinase 1 epsilon)	no change	no change	-1.3	-0.75
CHKB (choline kinase beta)	no change	no change	0.46	0.01
SEMA7A (semaphorin 7A (JohnMiltonHagen blood group))	no change	no change	0.59	-0.24

Ordered by “viability robust z-score” (descending): some entries from above.
gene	viability hit class	caspase hit class	viability robust z-score	caspase robust z-score
TPSD1 (tryptase delta 1)	no change	no change	1.09	-0.56
TCOF1 (treacle ribosome biogenesis factor 1)	no change	no change	1.08	2.52
CRISP3 (cysteine rich secretory protein 3)	no change	no change	-0.42	0.16
SYT11 (synaptotagmin 11)	no change	no change	-1.62	0.82
CFL1 (cofilin 1)	no change	no change	-1.92	2.33
NTN1 (netrin 1)	RV2 (reduced viability) (active)	no change	-4.04	0.95
SF3B6 (splicing factor 3b subunit 6)	no change	no change	-4.82	0.32
